According to the supplement of paper PMC9744312:
Where a name gives a salt, the structure may show the parent alone. The list shows a part of the results. This is a noisy data set.

The molecules below were run on Peyronie's disease tunica albuginea primary fibroblasts (assay: cell viability (DRAQ5 nuclear stain) relative to TGF-beta1-only control; higher = more viable cells). Details: 10 µM; TGF-beta1 10 ng/mL; 72 h.

Structure (SMILES)	cell viability [%]
CO/N=C(\C(=O)N[C@@H]1C(=O)N2C(C(=O)O)=C(CSc3nnnn3C)CS[C@H]12)c1csc(N)n1 [Cefmenoxime hydrochloride]	98.3
CC(C(=O)O)c1ccc2c(c1)[nH]c1ccc(Cl)cc12 (stereo unspecified) [Carprofen]	99.7
CC(C)(CO)c1cc2cc(NC(=O)C3(c4ccc5c(c4)OC(F)(F)O5)CC3)c(F)cc2n1C[C@@H](O)CO [Tezacaftor(VX-661)]	89.4
CC[C@@H]1C(=O)OC[C@@H]1Cc1cncn1C [Pilocarpine HCl]	79.7
O=c1c(-n2ccnn2)c[nH]n1-c1cc(N2CCOCC2)ncn1 [Molidustat (BAY 85-3934)]	81.3
COc1cc2nccc(Oc3ccc(NC(=O)NC4CC4)c(Cl)c3)c2cc1C(N)=O [Lenvatinib (E7080)]	62.5
COc1cc2nccc(Oc3ccc(NC(=O)NC4CC4)c(Cl)c3)c2cc1C(N)=O [lenvatinib Mesylate]	90.6
C[C@@H](O[C@H]1OCCN(Cc2nn(P(=O)(O)O)c(=O)[nH]2)[C@H]1c1ccc(F)cc1)c1cc(C(F)(F)F)cc(C(F)(F)F)c1 [Fosaprepitant dimeglumine salt]	90.7
CCC(C)(Oc1ccc(C2(c3ccc(OC(C)(CC)C(=O)O)cc3)CCCCC2)cc1)C(=O)O (stereo unspecified) [Clinofibrate]	89.2
CC(O)Cn1cnc2c1c(=O)n(C)c(=O)n2C (stereo unspecified) [Proxyphylline]	106
CC(C)NC[C@@H](O)COc1ccc(CC(N)=O)cc1 [(R)-(+)-Atenolol HCl]	113
CO/N=C(\C(=O)N[C@@H]1C(=O)N2C(C(=O)[O-])=C(C[n+]3cccc4c3CCC4)CS[C@H]12)c1csc(N)n1 [Cefpirome sulfate]	94.4
CS(=O)(=O)OCCCCOS(C)(=O)=O [Busulfan]	93.4
Cc1c(NC(=O)c2cccnc2)c(=O)n(-c2ccccc2)n1C [Nifenazone]	94.3
CC(=C(CCOC(=O)C(C)C)SSC(CCOC(=O)C(C)C)=C(C)N(C=O)Cc1cnc(C)nc1N)N(C=O)Cc1cnc(C)nc1N (stereo in doubt) [Sulbutiamine]	92.7
CNC(=O)c1cc(Oc2ccc(NC(=O)Nc3ccc(Cl)c(C(F)(F)F)c3)cc2)ccn1 [Sorafenib]	60.1
CNC(=O)c1cc(Oc2ccc(NC(=O)Nc3ccc(Cl)c(C(F)(F)F)c3)cc2)ccn1 [Sorafenib Tosylate]	100
COc1cccc2c1C(=O)c1c(O)c3c(c(O)c1C2=O)C[C@@](O)(C(C)=O)C[C@@H]3O[C@H]1C[C@H](N)[C@H](O)[C@H](C)O1 [Daunorubicin HCl]	31.9
C=CC1=C(C(=O)O)N2C(=O)[C@@H](NC(=O)/C(=N\O)c3csc(N)n3)[C@H]2SC1 [Cefdinir]	98
CN1C(CCl)Nc2cc(Cl)c(S(N)(=O)=O)cc2S1(=O)=O (stereo unspecified) [Methyclothiazide]	90.4
Cc1cn([C@H]2C=C[C@@H](CO)O2)c(=O)[nH]c1=O [Stavudine (d4T)]	97.3
CC[C@H](C)[C@@H]1NC(=O)[C@H](Cc2ccc(O)cc2)NC(=O)[C@@H](N)CSSC[C@@H](C(=O)N2CCC[C@H]2C(=O)N[C@@H](CC(C)C)C(=O)NCC(N)=O)NC(=O)[C@H](CC(N)=O)NC(=O)[C@H](CCC(N)=O)NC1=O [Oxytocin (Syntocinon)]	91.2

Structure (SMILES)	cell viability [%]
CC(=O)NS(=O)(=O)c1ccc(N)cc1 [Sulfacetamide sodium salt hydrate]	97.8
CC(=O)NS(=O)(=O)c1ccc(N)cc1 [Sulfacetamide Sodium]	96
CC(=O)NS(=O)(=O)c1ccc(N)cc1 [Sulfacetamide]	106
CCN(CC)CC(=O)Nc1c(C)cccc1C [Lidocaine]	87.4
CCN(CC)CC(=O)Nc1c(C)cccc1C [Lidocaine hydrochloride]	88.4
CCC(=O)O[C@@H]1CC(=O)O[C@H](C)C/C=C/C=C/[C@H](O)[C@H](C)C[C@H](CC=O)[C@H](O[C@@H]2O[C@H](C)[C@@H](O[C@H]3C[C@@](C)(O)[C@@H](OC(=O)CC)[C@H](C)O3)[C@H](N(C)C)[C@H]2O)[C@H]1OC [Midecamycin]	113
CC(=O)c1cc2c(o1)C(=O)c1ccccc1C2=O [Napabucasin]	18.6
CC(=O)OCC(=O)[C@@]12OC(C)(C)O[C@@H]1C[C@H]1[C@@H]3C[C@H](F)C4=CC(=O)C=C[C@]4(C)[C@@]3(F)[C@@H](O)C[C@@]12C [Fluocinonide]	76
c1ccc2c(CC3=NCCN3)cccc2c1 [Naphazoline HCl]	92.1
O=c1oc2c(O)c(O)cc3c(=O)oc4c(O)c(O)cc1c4c23 [Ellagic acid]	95.2
O=C1NS(=O)(=O)c2ccccc21 [Saccharin]	92.6
CC(C)COc1ccc(CNC(=O)N(Cc2ccc(F)cc2)C2CCN(C)CC2)cc1 [Pimavanserin]	59.5
OCCN(CCO)c1nc(N2CCCCC2)c2nc(N(CCO)CCO)nc(N3CCCCC3)c2n1 [Dipyridamole]	85.7
CC[C@H](CO)Nc1nc(NCc2ccccc2)c2ncn(C(C)C)c2n1 [Roscovitine (Seliciclib,CYC202)]	64.9
C[N+](C)(C)CC(=O)O [Betaine]	95
C[C@]12CC[C@@H]3c4ccc(OC(=O)c5ccccc5)cc4CC[C@H]3[C@@H]1CC[C@@H]2O [Estradiol Benzoate]	26.9
Cc1ccc(F)c(NC(=O)Nc2ccc(-c3cccc4[nH]nc(N)c34)cc2)c1 [Linifanib (ABT-869)]	88.8
CN1CCN(C(c2ccccc2)c2ccccc2)CC1 [Cyclizine 2HCl]	92
COC(=O)[C@@H]1CC2=CC(=O)CC[C@]2(C)[C@@]23O[C@@H]2C[C@@]2(C)[C@@H](CC[C@@]24CCC(=O)O4)[C@H]13 [Eplerenone]	97
Cc1c(-c2cnccn2)ssc1=S [Oltipraz]	87.7
CCN(CC)CCNC(C(=O)OCCC(C)C)c1ccccc1 (stereo unspecified) [Camylofin Chlorhydrate]	59
C[C@@H]1C[C@H]2[C@@H]3CCC4=CC(=O)C=C[C@]4(C)[C@@]3(F)[C@@H](O)C[C@]2(C)[C@@]1(O)C(=O)COP(=O)(O)O [Dexamethasone Sodium Phosphate]	82.7

Shown with bars between the fields: entries from further up.
Structure (SMILES) | cell viability [%]
CCN(CC)CC(=O)Nc1c(C)cccc1C [Lidocaine hydrochloride] | 88.4
CCC(=O)O[C@@H]1CC(=O)O[C@H](C)C/C=C/C=C/[C@H](O)[C@H](C)C[C@H](CC=O)[C@H](O[C@@H]2O[C@H](C)[C@@H](O[C@H]3C[C@@](C)(O)[C@@H](OC(=O)CC)[C@H](C)O3)[C@H](N(C)C)[C@H]2O)[C@H]1OC [Midecamycin] | 113
CC(=O)c1cc2c(o1)C(=O)c1ccccc1C2=O [Napabucasin] | 18.6

More records.

Structure (SMILES)	cell viability [%]
CC(C)OC(=O)OCOP(=O)(CO[C@H](C)Cn1cnc2c(N)ncnc21)OCOC(=O)OC(C)C [Tenofovir Disoproxil Fumarate]	85.3
CC(C)(CO)C(O)C(=O)NCCC(=O)O [Calcium D-Panthotenate]	52.6
N[C@@H](Cc1cc(I)c(Oc2ccc(O)c(I)c2)c(I)c1)C(=O)O [Liothyronine Sodium]	82.8
Nc1c2ccccc2nc2ccccc12 [9-Aminoacridine]	49.2
Cc1ccc(=O)n(-c2ccccc2)c1 [Pirfenidone]	90.2
C[C@@H](O)[C@@H]1NC(=O)[C@H](CCCCN)NC(=O)[C@@H](Cc2c[nH]c3ccccc23)NC(=O)[C@H](Cc2ccccc2)NC(=O)[C@@H](NC(=O)[C@H](N)Cc2ccccc2)CSSC[C@@H](C(=O)N[C@H](CO)[C@@H](C)O)NC1=O [Octreotide Acetate]	100
C[C@H](CCC(=O)O)[C@H]1CC[C@H]2[C@@H]3[C@@H](O)C[C@@H]4C[C@H](O)CC[C@]4(C)[C@H]3CC[C@]12C [Ursodiol]	74.6
CC[C@H](C)[C@H](NC(=O)[C@H](Cc1ccc(O)cc1)NC(=O)[C@@H](NC(=O)[C@H](CCCN=C(N)N)NC(=O)[C@@H](N)CC(=O)O)C(C)C)C(=O)N[C@@H](Cc1cnc[nH]1)C(=O)N1CCC[C@H]1C(=O)N[C@@H](Cc1ccccc1)C(=O)O [Angiotensin II human Acetate]	98.4
O=C(CCCN1CCN(c2ccccn2)CC1)c1ccc(F)cc1 [Azaperone]	90.4
COCCCN1CCC(NC(=O)c2cc(Cl)c(N)c3c2OCC3)CC1 [Prucalopride Succinate]	76.1
COCCCN1CCC(NC(=O)c2cc(Cl)c(N)c3c2OCC3)CC1 [Prucalopride]	100
COC(=O)C1=C(C#N)NC(C)=C(C(=O)OC(C)C)C1c1cccc([N+](=O)[O-])c1 (stereo unspecified) [Nilvadipine]	91
Cc1ccc(NC(=O)C2(c3ccc4c(c3)OC(F)(F)O4)CC2)nc1-c1cccc(C(=O)O)c1 [VX-809 (Lumacaftor)]	35.4
CNC(=O)c1ccc(Nc2ncc(C(F)(F)F)c(NCc3nccnc3N(C)S(C)(=O)=O)n2)cc1	82.6
CC(C)OC(=O)C(C)(C)Oc1ccc(C(=O)c2ccc(Cl)cc2)cc1 [Fenofibrate]	88
OCCOc1ccc(/C(=C(/CCCl)c2ccccc2)c2ccccc2)cc1 [Ospemifene]	82.8
NC(=O)CC[C@H](N)C(=O)O [L-Glutamine]	99.1
O=S(=O)(O)Oc1ccc(C(c2ccc(OS(=O)(=O)O)cc2)c2ccccn2)cc1 [Sodium Picosulfate]	95.9
Cc1cc2c(s1)Nc1ccccc1N=C2N1CCN(C)CC1 [Olanzapine]	88.3
CCCCN(CCCC)CC(O)c1cc(Cl)cc2c1-c1ccc(Cl)cc1/C2=C/c1ccc(Cl)cc1 (stereo unspecified) [Lumefantrine]	94.3
Cc1cn(-c2cc(NC(=O)c3ccc(C)c(Nc4nccc(-c5cccnc5)n4)c3)cc(C(F)(F)F)c2)cn1 [Nilotinib (AMN-107)]	104
Cc1cn(-c2cc(NC(=O)c3ccc(C)c(Nc4nccc(-c5cccnc5)n4)c3)cc(C(F)(F)F)c2)cn1 [Nilotinib hydrochloride]	116
